The list shows a part of the results. Further columns of the screen follow, without active or inactive calls. Compounds called inactive in the main read-out are mostly missing here. The note in brackets gives the kind of curve behind each potency; many fits are weak.
Experiment: qHTS Assay for Lipid Storage Modulators in Drosophila S3 Cells;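 as to cell number change: cells counted by Cell Tracker Red CMTPX staining in the red channel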
Conditions: BODIPY lipid droplet fluorescence, 18-24 h; for cell number change: measured here: cell count max response, cells fed with added oleic acid
Summary of the method: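 Laser-scanning cytometry quantifies lipid droplet accumulation (500–530 nm total intensity; droplet/cell object ratio) in oleic acid-fed (400 uM added) Drosophila S3 cells treated with a concentration series. 20 uM Triacsin C defined 100% inhibition.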

[1] = measured here: cell number channel AC50, cells fed with added oleic acid
[2] = measured here: lipid fluorescence (Fed channel) AC50, cells fed with added oleic acid

| Compound | cell number change [%] | AC50 [1] | AC50 [2] |
| --- | --- | --- | --- |
| CCOC(=O)C1=C(C)N(c2ccc(C)cc2)C(=O)/C1=C\c1ccc(O)c(OC)c1 | -66.1 | 18.4 µM [falling, single point] | 29.1 µM [falling, single point] |
| Cc1ncc(CN2CCC(C(=O)Nc3ccc(-n4cccn4)cc3)CC2)s1 | 17.8 | 0.398 µM [rising, full curve, poor fit] | – |
| CCc1nc(SCC(=O)Nc2ccccc2)c2c(=O)n(C)c(=O)n(C)c2n1 | – | – | 1.84 µM [falling, partial curve] |
| CC(C)c1nnc(NC(=O)CCC(=O)NC2CC2)s1 | -12.1 | 4.11 µM [falling, partial curve, poor fit] | – |
| NS(=O)(=O)c1ccc(NC(=O)CSc2nnc(-c3cnccn3)n2-c2ccccc2)cc1 | -0.324 | – | 3.66 µM [rising, partial curve] |
| Cc1[nH]nc2c1C(c1ccccc1F)NC2=O (stereo not given) | 19.6 | – | – |
| O=S1(=O)N=C(N(CCO)/N=C/c2ccccc2F)c2ccccc21 | 12.6 | – | 7.31 µM [rising, single point] |
| COc1ccc2c(=O)c(-c3ccccc3)coc2c1 | -63.6 | 5.8 µM [falling, partial curve] | 18.4 µM [falling, single point] |
| Cc1ccc(O)c(NC(=O)c2cc(-c3ccc(F)cc3)on2)c1 | -9.13 | – | 0.206 µM [falling, full curve, poor fit] |
| Cc1ccc(-n2nc3ccc(N)cc3n2)cc1Cl | 15.3 | 0.461 µM [rising, full curve, poor fit] | 0.58 µM [rising, single point] |
| CC(=O)Nc1ccc(S(=O)(=O)Nc2nccc(C3Cc4ccccc4C(=O)O3)n2)cc1 (stereo not given) | – | – | 6.51 µM [falling, single point] |
| S=C(NCc1ccccc1)NN1CCOCC1 | 1.08 | 5.8 µM [rising, single point] | 6.51 µM [rising, single point] |
| CC(NC(=O)CSc1nc2ccccc2n1C)c1ccccc1 (stereo not given) | 20 | – | 1.46 µM [rising, partial curve] |
| Cc1ccc(Cn2cnc3c(cnn3C(C)(C)C)c2=O)cc1 | -2.93 | – | – |
| N#Cc1cnn(-c2ccccc2)c1NC(=O)c1ccccc1F | -11.8 | – | 6.51 µM [rising, partial curve] |
| O=c1[nH]cnc2c1oc1ccccc12 | -2.69 | 0.231 µM [falling, full curve] | 0.116 µM [falling, full curve, poor fit] |
| NS(=O)(=O)c1ccc(CCNC(=O)C2CCN(S(=O)(=O)c3cnc[nH]3)CC2)cc1 | -30.4 | 0.411 µM [falling, full curve] | 1.03 µM [falling, full curve] |
| O=[N+]([O-])c1ccc(C2CC(c3ccccc3)=Nc3ccccc3S2)cc1 (stereo not given) | -67 | 18.4 µM [falling, single point] | 16.4 µM [falling, single point] |
| CCCCCc1ccc(OCCCC[n+]2cccc(C)c2)c(CCCCC)c1 | -44.9 | 16.4 µM [falling, partial curve] | 23.1 µM [falling, single point] |
| Cc1cccc(N2CCN(C(=O)CNC(=O)c3cccc([N+](=O)[O-])c3)CC2)c1C | -10.5 | – | – |

| Compound | cell number change [%] | AC50 [1] | AC50 [2] |
| --- | --- | --- | --- |
| Cc1ccc(NC(=O)CSC2=C(C#N)C(c3ccc4c(c3)OCO4)C3=C(CCCC3=O)N2)c(C)c1 (stereo not given) | 64.7 | 0.366 µM [rising, full curve, poor fit] | 0.0366 µM [rising, full curve, poor fit] |
| O=C(NCc1ccccc1)c1ccc(NC(=O)c2ccccc2F)cc1 | 8.48 | – | 25.9 µM [rising, single point] |
| O=S(=O)(c1ccc(Cl)s1)N1CCC2(CC1)OCCO2 | 28.7 | – | – |
| Cc1ccc(CSc2nnc(CCCCCNC(=O)OC(C)(C)C)o2)cc1 | 4.06 | 6.51 µM [rising, single point] | – |
| Cc1ccc(SCCC(=O)N2CCOCC2)cc1 | 1.48 | – | – |
| CC(=O)c1ccc(Oc2ccc(C(=O)c3ccc(C)c(C)c3)cc2[N+](=O)[O-])cc1 | – | 4.61 µM [rising, single point] | – |
| COC(=O)CNC(=O)c1c(C)cc(=O)oc1C | -25.1 | 4.11 µM [falling, full curve, poor fit] | – |
| O=C(N/N=C/c1cccc(OC(=O)c2ccc([N+](=O)[O-])cc2)c1)c1cccnc1 | -24.4 | – | 10.3 µM [rising, partial curve] |
| CCCCOc1ccc(CN(C)c2ncnc(N)n2)cc1 | -25.8 | – | 0.0206 µM [falling, full curve, poor fit] |
| O=C(Nc1ccc(Br)cc1)C1CC=CCC1C(=O)OCC1CCCO1 (stereo not given) | 119 | 16.4 µM [rising, partial curve] | 16.4 µM [rising, partial curve] |
| O=C(CCN1C(=O)/C(=C/c2cccs2)SC1=S)Nc1ccccc1O | – | – | 29.1 µM [falling, single point] |
| CCn1c2ccccc2c2cc(NC(=O)COC(=O)c3ccc(NC(=O)CC#N)cc3)ccc21 | – | – | 6.51 µM [rising, single point] |
| Fc1cc(F)c2nc(Nc3nc4cc5c(cc4s3)OCO5)sc2c1 | -56.8 | 5.17 µM [falling, partial curve] | – |
| COc1ccc(NC(=O)Cc2ccc(Cl)cc2Cl)cn1 | – | – | 3.26 µM [falling, partial curve, poor fit] |
| CCn1ccnc1CN1CCCCC1C(=O)Nc1ccc(Oc2cccnc2)cc1 (stereo not given) | -16.8 | – | – |
| Cc1ccc(C(=O)Nc2nc(=O)n(C(=O)c3ccccc3Cl)s2)cc1 | 14.1 | – | 6.51 µM [falling, single point] |
| CC(NC(=O)C(C)N1C(=O)c2ccccc2C1=O)c1ccccc1 (stereo not given) | -10.2 | – | 29.1 µM [falling, single point] |
| S=C(NCCCN1CCOCC1)Nc1ccc(Cl)cc1Cl | 3.76 | – | 20.6 µM [rising, partial curve] |
| O=C(C[n+]1ccc(CCSc2ccc(F)cc2)cc1)c1ccccc1 | – | – | 3.66 µM [falling, partial curve] |
| COc1ccc(NC(=O)Nc2c(SC)nsc2SC)cc1 | -48.6 | 13 µM [falling, partial curve, poor fit] | – |

| Compound | cell number change [%] | AC50 [1] | AC50 [2] |
| --- | --- | --- | --- |
| O=C(CCC(=O)N(CC(=O)NC1CCCCC1)c1ccc2c(c1)OCO2)Nc1ccccn1 | 47.1 | 0.291 µM [rising, full curve] | 0.92 µM [rising, full curve, poor fit] |
| CCCCCC(=O)Nc1ccc(S(=O)(=O)Nc2nccnc2OC)cc1 | 116 | 16.4 µM [rising, partial curve] | – |
| CN1C2CCC1CC(NC(=O)CSc1ccc(Cl)cc1)C2 (stereo not given) | -14.5 | – | 0.0058 µM [falling, full curve, poor fit] |
| CCOc1cccc(/C=N/NC(=O)c2ccc3c(c2)OCCO3)c1O | – | – | 29.1 µM [falling, single point] |
| O=C(Oc1c(Cl)cc(Cl)c2cccnc12)c1cccc([N+](=O)[O-])c1 | -9.07 | – | 16.4 µM [falling, single point] |
| Cc1cc(C)nc(SCCC(=O)N(C)C)n1 | -0.119 | – | 0.206 µM [rising, full curve, poor fit] |
| COc1ccccc1C(=O)N(CN1CCCC1=O)c1cccc(Cl)c1 | 97 | 20.6 µM [rising, single point] | – |
| Cc1ccc(C(=O)NC(=S)Nc2ccc(S(=O)(=O)N3CCN(C)CC3)cc2)cc1 | – | – | 0.164 µM [falling, full curve, poor fit] |
| CCn1nc(C)c(CNC(=O)C2CCC(=O)N(CCc3ccc(OC)cc3)C2)c1C (stereo not given) | -0.917 | – | 0.259 µM [falling, full curve, poor fit] |
| Fc1ccc2c(c1)C(c1ccncc1)=NNC(c1cccnc1)=N2 | 4.85 | – | 8.2 µM [falling, single point] |
| CCCCn1c(N)c(N(CCOC)C(=O)c2ccc(COc3ccccc3)o2)c(=O)[nH]c1=O | -50 | 0.206 µM [falling, partial curve] | – |
| O=C(NNC(=O)c1cc(F)c(F)cc1Cl)c1ccc(NS(=O)(=O)c2cccs2)cc1 | 5.49 | – | – |
| N=C1C(c2nc(-c3ccc(Cl)cc3)cs2)=C(O)CN1CCCN1CCOCC1 | -24.9 | – | 2.31 µM [rising, partial curve] |
| CN1CCN(c2ccc(S(=O)(=O)N3CCCCC3)cc2NC(=O)COc2ccc(F)cc2)CC1 | 92.6 | 16.4 µM [rising, partial curve] | – |
| CN1CCN(c2ccc(NC(=O)COc3ccccc3[N+](=O)[O-])cc2)CC1 | -30.4 | – | – |
| OCC(CO)(CO)N=Cc1cc(Br)ccc1O | 26.7 | 0.731 µM [rising, full curve, poor fit] | 20.6 µM [rising, single point] |
| Cc1cccc(NC(=S)NCC23C=CC(O2)C2C(=O)N(c4ccc(Cl)cc4)C(=O)C23)c1 (stereo not given) | -32.5 | 14.6 µM [falling, partial curve, poor fit] | – |
| CCn1c2ccccc2c2cc(/C(C)=N/O)ccc21 | -25.7 | – | 29.1 µM [falling, single point] |
| Cc1c(NC(=O)c2ccco2)c(=O)n(-c2ccccc2)n1C | 32.8 | 32.6 µM [rising, single point] | – |
| O=S(=O)(Nc1ccccc1O)c1ccc(Cl)nc1 | 19.6 | – | 0.259 µM [rising, partial curve, poor fit] |

For convenience, four of the compounds above.

| Compound | cell number change [%] | AC50 [1] | AC50 [2] |
| --- | --- | --- | --- |
| CCOc1cccc(/C=N/NC(=O)c2ccc3c(c2)OCCO3)c1O | – | – | 29.1 µM [falling, single point] |
| O=C(Oc1c(Cl)cc(Cl)c2cccnc12)c1cccc([N+](=O)[O-])c1 | -9.07 | – | 16.4 µM [falling, single point] |
| Cc1cc(C)nc(SCCC(=O)N(C)C)n1 | -0.119 | – | 0.206 µM [rising, full curve, poor fit] |
| COc1ccccc1C(=O)N(CN1CCCC1=O)c1cccc(Cl)c1 | 97 | 20.6 µM [rising, single point] | – |

Reference: PubChem BioAssay AID2685 (National Center for Advancing Translational Sciences (NCATS), 2010)
